In this test the target is human type III collagen (human) (UniProt P02461). The test is described as follows: plate coated with human type III collagen, bound VWF detected with polyclonal anti-VWF antibodies; VWF antigen to collagen binding ratio.

By UniProt entry, the sequences of proteins in these tests, tags left out. Residues count along the entry.
UniProt P02461, residues 154-1221: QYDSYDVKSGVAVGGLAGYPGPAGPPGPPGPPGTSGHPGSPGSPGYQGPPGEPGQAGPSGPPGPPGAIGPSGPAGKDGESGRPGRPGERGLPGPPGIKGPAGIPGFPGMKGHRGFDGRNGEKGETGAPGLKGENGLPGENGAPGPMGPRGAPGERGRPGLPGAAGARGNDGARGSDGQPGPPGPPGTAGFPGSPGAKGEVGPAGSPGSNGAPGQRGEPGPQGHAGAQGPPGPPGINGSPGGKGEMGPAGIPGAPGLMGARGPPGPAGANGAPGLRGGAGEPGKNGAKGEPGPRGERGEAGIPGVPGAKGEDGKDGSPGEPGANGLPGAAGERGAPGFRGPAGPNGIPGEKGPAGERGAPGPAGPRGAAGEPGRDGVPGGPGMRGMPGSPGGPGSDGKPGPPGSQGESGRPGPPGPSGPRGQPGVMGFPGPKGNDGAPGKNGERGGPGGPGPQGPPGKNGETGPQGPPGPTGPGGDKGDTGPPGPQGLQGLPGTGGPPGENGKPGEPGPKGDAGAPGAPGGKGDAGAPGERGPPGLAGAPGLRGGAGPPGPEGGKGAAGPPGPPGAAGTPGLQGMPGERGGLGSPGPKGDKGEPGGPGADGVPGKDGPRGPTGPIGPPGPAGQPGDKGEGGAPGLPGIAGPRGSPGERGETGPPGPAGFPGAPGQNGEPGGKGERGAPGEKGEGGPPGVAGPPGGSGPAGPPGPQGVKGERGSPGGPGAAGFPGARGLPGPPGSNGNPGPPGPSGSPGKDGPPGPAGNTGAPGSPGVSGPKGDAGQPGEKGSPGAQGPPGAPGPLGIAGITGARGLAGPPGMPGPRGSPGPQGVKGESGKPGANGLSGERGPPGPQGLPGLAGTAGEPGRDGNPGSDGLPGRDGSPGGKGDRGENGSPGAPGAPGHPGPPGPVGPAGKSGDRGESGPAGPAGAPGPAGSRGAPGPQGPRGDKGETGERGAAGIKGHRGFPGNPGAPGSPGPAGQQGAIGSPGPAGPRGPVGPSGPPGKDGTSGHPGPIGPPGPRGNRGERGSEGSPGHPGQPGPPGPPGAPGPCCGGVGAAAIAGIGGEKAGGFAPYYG
UniProt P04275, residues 764-2813: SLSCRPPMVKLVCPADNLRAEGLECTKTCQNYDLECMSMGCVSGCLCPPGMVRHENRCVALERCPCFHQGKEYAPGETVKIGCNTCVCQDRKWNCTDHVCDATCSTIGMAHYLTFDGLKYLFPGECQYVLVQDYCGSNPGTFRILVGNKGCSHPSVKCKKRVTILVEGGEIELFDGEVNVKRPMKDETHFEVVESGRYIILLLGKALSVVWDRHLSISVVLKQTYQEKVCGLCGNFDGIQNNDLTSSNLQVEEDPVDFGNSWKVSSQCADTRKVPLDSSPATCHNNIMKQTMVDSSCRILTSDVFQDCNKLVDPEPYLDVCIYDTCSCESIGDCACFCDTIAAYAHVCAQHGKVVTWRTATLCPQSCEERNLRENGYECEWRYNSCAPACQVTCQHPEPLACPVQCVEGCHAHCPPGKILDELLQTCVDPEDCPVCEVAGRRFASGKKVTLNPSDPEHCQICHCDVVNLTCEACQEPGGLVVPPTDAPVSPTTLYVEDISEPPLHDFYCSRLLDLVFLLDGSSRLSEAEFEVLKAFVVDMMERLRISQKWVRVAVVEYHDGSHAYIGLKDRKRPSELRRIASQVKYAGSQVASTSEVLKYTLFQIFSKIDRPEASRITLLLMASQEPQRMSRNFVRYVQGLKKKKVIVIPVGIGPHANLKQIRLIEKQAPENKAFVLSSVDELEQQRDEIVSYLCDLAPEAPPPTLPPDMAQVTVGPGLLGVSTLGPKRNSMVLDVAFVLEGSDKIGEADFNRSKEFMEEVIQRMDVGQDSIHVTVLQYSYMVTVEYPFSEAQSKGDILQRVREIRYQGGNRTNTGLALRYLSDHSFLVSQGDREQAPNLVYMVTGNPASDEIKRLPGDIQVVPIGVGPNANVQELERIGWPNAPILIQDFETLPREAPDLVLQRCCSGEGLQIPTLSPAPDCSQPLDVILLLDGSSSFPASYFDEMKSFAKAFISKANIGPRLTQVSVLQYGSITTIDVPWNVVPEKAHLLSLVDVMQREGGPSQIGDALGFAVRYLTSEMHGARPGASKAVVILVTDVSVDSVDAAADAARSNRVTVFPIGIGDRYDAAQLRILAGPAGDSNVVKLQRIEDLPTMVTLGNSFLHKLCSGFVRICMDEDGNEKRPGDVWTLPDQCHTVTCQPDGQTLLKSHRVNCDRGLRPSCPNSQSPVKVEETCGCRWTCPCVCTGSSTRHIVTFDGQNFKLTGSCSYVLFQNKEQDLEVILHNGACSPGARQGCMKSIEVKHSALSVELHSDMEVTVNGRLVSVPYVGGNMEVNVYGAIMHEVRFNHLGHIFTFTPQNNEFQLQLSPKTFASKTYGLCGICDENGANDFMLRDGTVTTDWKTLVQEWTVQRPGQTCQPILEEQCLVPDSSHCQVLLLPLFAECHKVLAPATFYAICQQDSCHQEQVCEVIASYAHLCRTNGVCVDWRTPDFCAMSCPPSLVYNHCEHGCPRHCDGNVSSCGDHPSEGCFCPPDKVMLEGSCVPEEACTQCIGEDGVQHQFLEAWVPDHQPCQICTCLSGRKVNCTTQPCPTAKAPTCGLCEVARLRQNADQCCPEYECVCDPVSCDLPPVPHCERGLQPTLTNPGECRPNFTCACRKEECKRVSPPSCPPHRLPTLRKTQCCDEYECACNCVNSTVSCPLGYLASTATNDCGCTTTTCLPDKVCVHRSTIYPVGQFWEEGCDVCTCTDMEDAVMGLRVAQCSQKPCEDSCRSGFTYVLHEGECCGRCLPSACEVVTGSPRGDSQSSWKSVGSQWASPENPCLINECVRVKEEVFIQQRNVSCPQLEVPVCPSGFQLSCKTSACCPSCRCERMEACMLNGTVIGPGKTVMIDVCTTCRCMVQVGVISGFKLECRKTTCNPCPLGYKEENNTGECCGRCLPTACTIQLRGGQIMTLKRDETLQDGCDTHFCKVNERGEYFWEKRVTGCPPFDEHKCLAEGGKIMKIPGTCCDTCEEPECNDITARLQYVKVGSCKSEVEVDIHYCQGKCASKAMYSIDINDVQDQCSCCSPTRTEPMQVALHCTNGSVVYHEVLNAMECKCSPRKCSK

Results are given in words; binding and its absence hold for the method and conditions named. Some entries that bind do so weakly or less than the wild type.

As to “VWF derived from normal human plasma (from UniProt P04275 764-2813)”, the binding entry was “binds”.
